This passage reports binding results from PMC10040811.

This experiment concerns the target T1, GST-rat afadin NN (aa 2-500) (rat) (UniProt O35889).
T1 sequence: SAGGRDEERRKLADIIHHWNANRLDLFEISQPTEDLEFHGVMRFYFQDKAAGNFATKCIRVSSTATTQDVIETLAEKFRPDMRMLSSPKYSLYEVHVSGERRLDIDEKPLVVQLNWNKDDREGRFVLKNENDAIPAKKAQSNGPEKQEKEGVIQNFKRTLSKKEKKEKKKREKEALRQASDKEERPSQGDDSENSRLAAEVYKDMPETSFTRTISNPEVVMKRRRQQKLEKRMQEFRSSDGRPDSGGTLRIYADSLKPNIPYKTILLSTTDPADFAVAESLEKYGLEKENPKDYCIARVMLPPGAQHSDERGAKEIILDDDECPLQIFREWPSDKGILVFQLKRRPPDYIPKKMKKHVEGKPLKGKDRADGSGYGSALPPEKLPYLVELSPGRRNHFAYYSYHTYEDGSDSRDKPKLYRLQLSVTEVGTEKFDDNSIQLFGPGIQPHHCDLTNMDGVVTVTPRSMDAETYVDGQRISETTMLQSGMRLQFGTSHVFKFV
The experiment can be described thus: pull-down; GST-afadin-NN from E. coli held on glutathione-Sepharose 4B, incubated 3 h with lysate of HEK293 cells expressing V5-MAGUIN-2 in 0.25% DDM in buffer A; blot with the V5 mAb; only the target purified.

These are yes or no findings as the source states them, for the method shown. Binding seen in cells or lysates may run through a third protein. Binding calls can cover weak binding; strength is not graded here. Where a sequence is shown, tags or fusion partners need not be part of it.

On to V5-tagged full-length MAGUIN-2 (mouse), for which the binding entry is “binds”.
